# Data as given in article PMC10269511.
# Results are given in words; binding and its absence hold for the method and conditions named. In cells and extracts the contact can be indirect. Some binding calls cover weakened binding; strength is not graded here.
# B1: AIM2 (absent in melanoma 2; mouse, endogenous in J774A.1 macrophages) (protein, UniProt Q91VJ1 1-354)
# chain: MESEYREMLLLTGLDHITEEELKRFKYFALTEFQIARSTLDVADRTELADHLIQSAGAASAVTKAINIFQKLNYMHIANALEEKKKEAERKLMTNTKKRGTQKVENRSQAENCSAASATRSDNDFKEQAATEVCPQAKPQKKQMVAEQEAIREDLQKDPLVVTVLKAINPFECETQEGRQEIFHATVATETDFFFVKVLNAQFKDKFIPKRTIKISNYLWHSNFMEVTSSSVVVDVESNHEVPNNVVKRARETPRISKLKIQPCGTIVNGLFKVQKITEEKDRVLYGIHDKTGTMEVLVLGNPSKTKCEEGDKIRLTFFEVSKNGVKIQLKSGPCSFFKVIKAAKPKTDMKSVE
# Biological target: T1, ASC (mouse, endogenous in J774A.1 macrophages) (mouse (endogenous in J774A.1)) (UniProt Q9EPB4)
# T1 sequence: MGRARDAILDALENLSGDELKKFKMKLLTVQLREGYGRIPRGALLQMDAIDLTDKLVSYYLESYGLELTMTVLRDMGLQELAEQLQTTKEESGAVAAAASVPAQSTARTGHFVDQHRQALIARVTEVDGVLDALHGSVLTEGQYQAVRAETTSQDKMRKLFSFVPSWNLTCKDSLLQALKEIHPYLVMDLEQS
# Assay: co-IP
binder,measurement,value
B1,binding,binds
